No constants are given. Whether binding was seen depends on the method and setting. For part of these data: Binding calls can cover weak binding; strength is not graded here.
Key:
[1] = molecular target: cynomolgus monkey Flag-TNC-CD70 (cynomolgus monkey); experiment: CD27-CD70 inhibition ELISA
[2] = molecular target: human-mouse CD70 chimera chim-1 (Flag-TNC-CD70); experiment: ELISA on anti-Flag-captured chimera
[3] = molecular target: human-mouse CD70 chimera chim-2.1 (Flag-TNC-CD70); experiment: ELISA on anti-Flag-captured chimera
[4] = molecular target: human-mouse CD70 chimera chim-2.2 (Flag-TNC-CD70); experiment: ELISA on anti-Flag-captured chimera
[5] = molecular target: human-mouse CD70 chimera chim-2.3 (Flag-TNC-CD70); experiment: ELISA on anti-Flag-captured chimera
[6] = molecular target: human-mouse CD70 chimera chim-2.4 (Flag-TNC-CD70); experiment: ELISA on anti-Flag-captured chimera
[7] = molecular target: human-mouse CD70 chimera chim-2 (Flag-TNC-CD70); experiment: ELISA on anti-Flag-captured chimera, anti-human-Fc-HRP
[8] = molecular target: human-mouse CD70 chimera chim-3 (Flag-TNC-CD70); experiment: as above
[9] = molecular target: human-mouse CD70 chimera chim-4 (Flag-TNC-CD70); experiment: as above

B1: ARGX-110 (non-fucosylated human IgG1 of germlined 27B3 clone 41D12) (antibody, V domains shown)
VH: EVQLVESGGGLVQPGGSLRLSCAASGFTFSVYYMNWVRQAPGKGLEWVSDINNEGGTTYYADSVKGRFTISRDNSKNSLYLQMNSLRAEDTAVYYCARDAGYSNHVPIFDSWGQGTLVTVSS
VL: QAVVTQEPSLTVSPGGTVTLTCGLKSGSVTSDNFPTWYQQTPGQAPRLLIYNTNTRHSGVPDRFSGSILGNKAALTITGAQADDEAEYFCALFISNPSVEFGGGTQLTVLG
notes: also called ARGX-100; 41D12 (ARGX-110)
binding [1]: binds | binding [2]: binds | binding [3]: binds | binding [4]: binds | binding [5]: binds | binding [6]: binds | binding [7]: no binding (tested: dilution series from 10 µg/ml) | binding [8]: no binding (tested: dilution series from 10 µg/ml) | binding [9]: no binding (tested: dilution series from 10 µg/ml)

Reference: US20230265201A1 (published 2023)
